The values that follow come from the supplement of paper PMC8104966.

The other results are listed elsewhere or left out. Repeats in this data set agree poorly, so a single value says little.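 U2OS cells expressing ACE2 were combined with U2OS cells expressing full-length spike, and imaging quantified fusion as the fraction of nuclei displaying both cell types' fluorescent markers. Non-toxic compounds with a fusion z-score under -3, i.e., over three standard deviations below the plate's DMSO wells, are called inhibitory hits.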

This assay has as its system U2OS ACE2 x SARS-CoV-2 spike co-culture. Nature of the assay: cell-cell fusion (fraction fused) z-score vs plate DMSO control; higher = more fusion. To be noted: 30 µM; 5 h; toxicity class: non-toxic, passed QC.
Turning to `Oc1ccc(Cl)cc1`, the “cell-cell fusion (z-score)” value was inactive: 1.26.
To `C[C@H]1COc2c(N3CCN(C)CC3)c(F)cc3c(=O)c(C(=O)O)cn1c23` [Levofloxacin] belongs inactive: 1.74.
For `CC(C(=O)O)c1ccc(N2Cc3ccccc3C2=O)cc1` (stereo not drawn), the “cell-cell fusion (z-score)” value is inactive: -0.362.
The value for `COc1ccc2c(c1OC)C(=O)O[C@H]2[C@@H]1c2cc3c(cc2CCN1C)OCO3` [(+)-Hydrastine] was inactive: 2.64.
`C[C@H](CCC(=O)[O-])[C@H]1CCC2C3C(=O)CC4CC(=O)CC[C@]4(C)C3CC(=O)[C@@]21C.[Na+]` (stereo partly drawn): the “cell-cell fusion (z-score)” value was inactive: 2.17.
The value for `CCCN(CCC)C(=O)C(CCC(=O)O)NC(=O)c1ccccc1` (stereo not drawn) was inactive: 0.781; that for `CCCN(CCC)C(=O)C(CCC(=O)O)NC(=O)c1ccccc1` (stereo not drawn) [Proglumide] was inactive: 2.82.
For the molecule `COc1cc(C=O)cc(OC)c1OC`, the “cell-cell fusion (z-score)” value is inactive: 2.26.
To `CSCC[C@H](N)C(=O)O` [L-Methionine] belongs inactive: 1.74; to `C=C1CCN([C@H](C)[C@](O)(Cn2cncn2)c2ccc(F)cc2F)CC1` [Efinaconazole], inactive: 2.07.
On to `Nc1ccncc1` [4-Aminopyridine], for which the “cell-cell fusion (z-score)” value was inactive: 2.02.
On to `Nc1ccncc1`, for which the “cell-cell fusion (z-score)” value is inactive: 2.74.
Consider `Cc1nc2c([nH]1)c(=O)n(C)c(=O)n2Cc1ccco1` [Furafylline], for which the “cell-cell fusion (z-score)” value is inactive: -1.49.
As to `CCCN[C@H]1CCc2nc(N)sc2C1.Cl.Cl.O` [Pramipexole 2HCl Monohydrate], the “cell-cell fusion (z-score)” value is inactive: 2.05.
To `CC(=O)[C@H]1CCC2[C@@H]3CCC4C[C@H](O)CC[C@]4(C)C3CC[C@@]21C` (stereo partly drawn) belongs inactive: 2.2.
The value for `COc1ccc2cc(CCC(C)=O)ccc2c1` was inactive: 3.38.
The value for `COc1cc(/C=C(\C#N)C(=O)Nc2nnc(C(F)(F)F)s2)ccc1OCc1ccc(C(F)(F)F)cc1C(F)(F)F` was inactive: 1.87.
Consider `CCCOc1ccccc1-c1nc(=O)c2nn[nH]c2[nH]1` [Zaprinast], for which the “cell-cell fusion (z-score)” value is inactive: 1.17.
To `Cl.c1ccc2sc(C3(N4CCCCC4)CCCCC3)cc2c1` [BTCP hydrochloride] belongs inactive: 3.82.
As for `C[C@H](CCC(=O)NCCS(=O)(=O)[O-])[C@H]1CC[C@H]2[C@@H]3[C@H](O)C[C@@H]4C[C@H](O)CC[C@]4(C)[C@H]3C[C@H](O)[C@]12C.O.[Na+]` [Taurocholic acid sodium salt hydrate], the “cell-cell fusion (z-score)” value is inactive: 1.95.
For the molecule `CCCCOc1c(C(=O)c2c(F)cc(C)cc2F)cnc2[nH]ncc12`, the “cell-cell fusion (z-score)” value was inactive: 1.42.
To `CNNC.Cl.Cl` belongs inactive: 2.13; to `C=C[C@H]1C[N@@]2CC[C@H]1C[C@@H]2[C@@H](OC(=O)OCC)c1ccnc2ccc(OC)cc12`, inactive: 2.48.
